This series in a line: Solubility in lipid solvents and solvent mixtures in ambient conditions. It is filed as physicochemical. The following applies: in Miglyol 810, ambient conditions. The procedure:
Solubility of ABT-263 parent (free base, crystalline Form I) and ABT-263 bis-HCl salt was tested in a variety of lipid solvents and solvent mixtures in ambient conditions. Trademarked solvents in this study, unless identified hereinabove, are as follows (substantially equivalent products from other manufacturers can be substituted if available): • Miglyol 810™ of Sasol: caprylic/capric triglycerides; • Capmul MCM™ of Abitec: glyceryl caprylate/caprate; • Captex 300™ of Abitec: caprylic/capric triglycerides; • Labrafil M 2125 CS™ of Gattefossé: polyoxyethylene glyceryl linoleate; • Tween 20™ of Uniqema: polysorbate 20; • Labrasol™ of Gattefossé: polyoxyethylene glyceryl caprylate/caprate; • Cremophor RH40™: polyoxyethyene (40) hydrogenated castor oil. “PE-91” is Phosal 53 MCT™+ethanol, 9:1 by volume. “LOT-343” is Labrafil M 1944 CS™+oleic acid+Tween 80™, 30:40:30 by weight.
In some cases, indicated in Table 4 by an asterisk (*), solubility was initially high but precipitation occurred upon standing.

This passage reports Solubility results from patent publication US8927009B2 (AbbVie Inc., priority 2009, dated 2015).

Where a name gives a salt, the structure may show the parent alone. Further values from the same series stand in other lists.

With `CC1(C)CCC(c2ccc(Cl)cc2)=C(CN2CCN(c3ccc(C(=O)NS(=O)(=O)c4ccc(N[C@H](CCN5CCOCC5)CSc5ccccc5)c(S(=O)(=O)C(F)(F)F)c4)cc3)CC2)C1` [ABT-263], the Solubility (listed as Parent (Form I)) is given as <76 mg/g.

As for `CC1(C)CCC(c2ccc(Cl)cc2)=C(CN2CCN(c3ccc(C(=O)NS(=O)(=O)c4ccc(N[C@H](CCN5CCOCC5)CSc5ccccc5)c(S(=O)(=O)C(F)(F)F)c4)cc3)CC2)C1` [ABT-263 bis-HCl], the Solubility (listed as bis-HCl salt) was <84 mg/g.
